{
  "sequences": {"note": "Chains of the proteins cited; added tags and fusions are not shown. Lines headed by an entry give the natural chain unless they say otherwise; changes in a name come on top.", "UniProt P26645": "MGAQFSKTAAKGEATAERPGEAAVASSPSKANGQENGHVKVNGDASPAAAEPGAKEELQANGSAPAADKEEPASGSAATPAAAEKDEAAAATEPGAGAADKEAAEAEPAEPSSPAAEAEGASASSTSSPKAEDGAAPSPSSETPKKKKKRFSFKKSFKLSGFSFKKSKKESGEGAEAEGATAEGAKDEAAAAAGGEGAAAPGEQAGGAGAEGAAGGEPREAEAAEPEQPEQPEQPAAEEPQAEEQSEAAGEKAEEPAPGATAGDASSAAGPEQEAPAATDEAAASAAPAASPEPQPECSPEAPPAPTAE", "UniProt P28741, whole entry": "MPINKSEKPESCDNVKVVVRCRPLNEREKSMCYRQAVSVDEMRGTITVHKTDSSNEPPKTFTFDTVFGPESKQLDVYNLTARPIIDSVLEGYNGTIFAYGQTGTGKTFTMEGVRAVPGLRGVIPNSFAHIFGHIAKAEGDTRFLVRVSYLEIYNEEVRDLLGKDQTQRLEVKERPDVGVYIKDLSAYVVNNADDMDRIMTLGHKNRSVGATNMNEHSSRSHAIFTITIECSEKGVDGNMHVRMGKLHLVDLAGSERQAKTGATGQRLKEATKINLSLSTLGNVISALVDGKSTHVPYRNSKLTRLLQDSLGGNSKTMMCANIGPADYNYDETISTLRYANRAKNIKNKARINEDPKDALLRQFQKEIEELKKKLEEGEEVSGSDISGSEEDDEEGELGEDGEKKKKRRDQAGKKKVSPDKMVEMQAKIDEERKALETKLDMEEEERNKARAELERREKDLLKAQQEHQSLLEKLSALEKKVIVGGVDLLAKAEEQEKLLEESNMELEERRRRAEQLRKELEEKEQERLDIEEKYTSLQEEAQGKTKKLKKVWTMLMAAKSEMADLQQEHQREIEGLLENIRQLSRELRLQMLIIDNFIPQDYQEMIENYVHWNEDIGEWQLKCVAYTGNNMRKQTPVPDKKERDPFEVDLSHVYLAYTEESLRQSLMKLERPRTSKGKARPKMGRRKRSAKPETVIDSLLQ", "UniProt P21278": "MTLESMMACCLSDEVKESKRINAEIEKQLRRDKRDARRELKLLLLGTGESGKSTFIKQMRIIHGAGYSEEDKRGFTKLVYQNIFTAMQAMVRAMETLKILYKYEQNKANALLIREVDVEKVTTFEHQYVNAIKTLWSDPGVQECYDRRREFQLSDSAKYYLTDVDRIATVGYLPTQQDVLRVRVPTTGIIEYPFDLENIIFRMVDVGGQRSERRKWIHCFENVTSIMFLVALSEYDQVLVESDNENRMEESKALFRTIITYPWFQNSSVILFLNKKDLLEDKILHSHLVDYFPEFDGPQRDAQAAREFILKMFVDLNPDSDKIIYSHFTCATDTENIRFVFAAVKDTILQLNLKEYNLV", "UniProt P26323": "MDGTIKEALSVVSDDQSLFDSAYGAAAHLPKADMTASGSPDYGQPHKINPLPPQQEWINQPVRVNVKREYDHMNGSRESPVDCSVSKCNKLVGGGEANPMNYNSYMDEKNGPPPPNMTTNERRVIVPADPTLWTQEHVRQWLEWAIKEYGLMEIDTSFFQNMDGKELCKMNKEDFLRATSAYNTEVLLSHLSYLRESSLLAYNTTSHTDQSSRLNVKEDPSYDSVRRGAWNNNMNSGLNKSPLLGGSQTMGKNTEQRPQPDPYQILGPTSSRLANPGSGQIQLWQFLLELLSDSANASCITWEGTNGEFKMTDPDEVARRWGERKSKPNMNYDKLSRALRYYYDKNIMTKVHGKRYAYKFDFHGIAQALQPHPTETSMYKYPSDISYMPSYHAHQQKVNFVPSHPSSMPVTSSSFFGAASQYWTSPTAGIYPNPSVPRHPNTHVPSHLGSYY", "UniProt P26039": "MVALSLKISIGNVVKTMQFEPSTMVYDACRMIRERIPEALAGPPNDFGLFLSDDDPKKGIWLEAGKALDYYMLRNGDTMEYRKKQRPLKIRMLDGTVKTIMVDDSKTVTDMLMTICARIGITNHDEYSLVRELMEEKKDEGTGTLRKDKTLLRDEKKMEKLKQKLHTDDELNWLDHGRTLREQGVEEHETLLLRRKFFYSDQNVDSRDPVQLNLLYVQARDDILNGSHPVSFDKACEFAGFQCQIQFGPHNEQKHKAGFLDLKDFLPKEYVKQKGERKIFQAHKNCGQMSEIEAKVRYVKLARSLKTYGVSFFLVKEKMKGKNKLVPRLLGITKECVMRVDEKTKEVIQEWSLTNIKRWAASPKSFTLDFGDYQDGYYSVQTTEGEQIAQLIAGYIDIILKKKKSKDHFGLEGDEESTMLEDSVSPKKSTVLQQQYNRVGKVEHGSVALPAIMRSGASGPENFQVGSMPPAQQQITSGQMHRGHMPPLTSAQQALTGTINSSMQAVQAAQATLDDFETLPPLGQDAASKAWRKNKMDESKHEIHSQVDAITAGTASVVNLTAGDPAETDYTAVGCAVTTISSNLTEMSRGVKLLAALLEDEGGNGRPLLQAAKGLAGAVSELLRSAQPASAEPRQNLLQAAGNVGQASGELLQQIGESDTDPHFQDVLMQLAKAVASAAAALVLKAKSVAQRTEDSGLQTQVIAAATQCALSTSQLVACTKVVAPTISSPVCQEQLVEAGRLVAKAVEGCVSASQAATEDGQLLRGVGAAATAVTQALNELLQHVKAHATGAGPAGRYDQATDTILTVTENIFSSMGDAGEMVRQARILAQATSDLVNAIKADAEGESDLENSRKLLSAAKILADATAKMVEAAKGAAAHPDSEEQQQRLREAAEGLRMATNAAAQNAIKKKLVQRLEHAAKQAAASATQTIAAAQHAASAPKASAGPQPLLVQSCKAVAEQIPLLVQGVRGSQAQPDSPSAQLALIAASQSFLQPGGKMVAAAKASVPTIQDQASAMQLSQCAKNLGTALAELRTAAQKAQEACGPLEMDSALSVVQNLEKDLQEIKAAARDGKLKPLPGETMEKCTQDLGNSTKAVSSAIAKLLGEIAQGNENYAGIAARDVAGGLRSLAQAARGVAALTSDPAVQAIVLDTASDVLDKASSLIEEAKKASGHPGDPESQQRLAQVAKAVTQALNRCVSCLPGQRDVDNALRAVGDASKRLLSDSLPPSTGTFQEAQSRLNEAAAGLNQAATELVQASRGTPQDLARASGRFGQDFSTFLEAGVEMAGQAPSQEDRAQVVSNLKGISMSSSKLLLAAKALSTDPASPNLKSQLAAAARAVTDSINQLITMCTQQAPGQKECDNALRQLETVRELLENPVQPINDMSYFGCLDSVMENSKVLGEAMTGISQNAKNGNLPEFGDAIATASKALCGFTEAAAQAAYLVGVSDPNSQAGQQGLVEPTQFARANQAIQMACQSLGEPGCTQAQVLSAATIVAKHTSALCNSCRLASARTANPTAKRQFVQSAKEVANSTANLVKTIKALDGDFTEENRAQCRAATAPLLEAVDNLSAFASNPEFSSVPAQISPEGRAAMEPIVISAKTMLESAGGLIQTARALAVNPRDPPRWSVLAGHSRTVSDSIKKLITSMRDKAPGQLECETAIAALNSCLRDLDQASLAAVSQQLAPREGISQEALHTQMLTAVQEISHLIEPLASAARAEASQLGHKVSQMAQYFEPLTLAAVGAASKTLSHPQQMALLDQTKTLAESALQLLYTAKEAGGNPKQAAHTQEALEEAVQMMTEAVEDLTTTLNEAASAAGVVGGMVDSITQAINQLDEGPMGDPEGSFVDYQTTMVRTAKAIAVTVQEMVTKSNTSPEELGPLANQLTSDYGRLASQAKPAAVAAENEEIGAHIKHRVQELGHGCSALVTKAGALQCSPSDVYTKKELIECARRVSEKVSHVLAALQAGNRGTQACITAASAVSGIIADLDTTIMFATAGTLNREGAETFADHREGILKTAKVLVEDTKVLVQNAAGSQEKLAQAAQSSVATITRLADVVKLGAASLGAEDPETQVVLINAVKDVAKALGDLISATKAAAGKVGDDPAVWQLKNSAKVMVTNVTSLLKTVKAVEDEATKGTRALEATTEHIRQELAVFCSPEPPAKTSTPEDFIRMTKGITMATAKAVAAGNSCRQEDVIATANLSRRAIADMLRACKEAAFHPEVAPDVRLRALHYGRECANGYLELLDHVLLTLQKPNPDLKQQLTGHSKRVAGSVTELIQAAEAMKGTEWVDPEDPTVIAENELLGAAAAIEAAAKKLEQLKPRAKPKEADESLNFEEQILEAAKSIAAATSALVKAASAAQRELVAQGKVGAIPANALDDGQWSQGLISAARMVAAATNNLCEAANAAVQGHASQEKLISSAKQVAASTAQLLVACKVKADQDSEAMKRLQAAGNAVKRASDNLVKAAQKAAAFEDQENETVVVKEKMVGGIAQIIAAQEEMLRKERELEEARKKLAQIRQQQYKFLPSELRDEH", "UniProt P26150": "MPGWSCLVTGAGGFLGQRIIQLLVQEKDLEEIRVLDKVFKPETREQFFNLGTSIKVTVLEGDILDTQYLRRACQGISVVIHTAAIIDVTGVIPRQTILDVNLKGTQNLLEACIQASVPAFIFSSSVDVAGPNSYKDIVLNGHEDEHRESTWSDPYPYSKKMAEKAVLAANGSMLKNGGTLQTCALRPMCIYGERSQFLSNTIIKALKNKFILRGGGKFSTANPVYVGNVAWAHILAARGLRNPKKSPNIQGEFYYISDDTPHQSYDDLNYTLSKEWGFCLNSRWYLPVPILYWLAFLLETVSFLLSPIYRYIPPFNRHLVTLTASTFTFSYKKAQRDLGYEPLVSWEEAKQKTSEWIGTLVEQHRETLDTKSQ", "UniProt P23611": "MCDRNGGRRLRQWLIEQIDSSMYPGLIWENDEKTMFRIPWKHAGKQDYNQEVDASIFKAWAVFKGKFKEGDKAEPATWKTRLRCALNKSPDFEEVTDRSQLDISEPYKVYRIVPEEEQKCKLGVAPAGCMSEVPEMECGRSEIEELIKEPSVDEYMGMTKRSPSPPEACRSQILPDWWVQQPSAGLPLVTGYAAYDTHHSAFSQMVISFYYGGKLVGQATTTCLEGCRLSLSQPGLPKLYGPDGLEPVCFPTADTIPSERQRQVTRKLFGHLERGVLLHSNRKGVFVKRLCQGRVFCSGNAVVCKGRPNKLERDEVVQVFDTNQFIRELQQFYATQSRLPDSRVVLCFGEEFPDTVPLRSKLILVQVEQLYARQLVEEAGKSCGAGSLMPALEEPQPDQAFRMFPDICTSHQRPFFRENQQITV", "UniProt P16045, whole entry": "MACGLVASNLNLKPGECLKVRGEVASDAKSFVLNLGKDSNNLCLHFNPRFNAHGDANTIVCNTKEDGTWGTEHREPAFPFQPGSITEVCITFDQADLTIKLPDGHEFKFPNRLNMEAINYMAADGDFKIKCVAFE", "UniProt P27600": "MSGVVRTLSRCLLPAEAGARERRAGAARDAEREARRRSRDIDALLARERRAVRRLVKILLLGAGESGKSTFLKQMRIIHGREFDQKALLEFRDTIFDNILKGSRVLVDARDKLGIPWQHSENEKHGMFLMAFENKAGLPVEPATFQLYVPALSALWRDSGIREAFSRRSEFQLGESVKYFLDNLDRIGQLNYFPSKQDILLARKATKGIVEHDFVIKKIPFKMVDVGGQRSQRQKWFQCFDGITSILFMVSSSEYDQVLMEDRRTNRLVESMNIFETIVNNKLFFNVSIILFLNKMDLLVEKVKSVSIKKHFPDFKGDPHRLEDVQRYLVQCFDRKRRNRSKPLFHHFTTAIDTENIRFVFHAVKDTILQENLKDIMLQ", "UniProt P21180": "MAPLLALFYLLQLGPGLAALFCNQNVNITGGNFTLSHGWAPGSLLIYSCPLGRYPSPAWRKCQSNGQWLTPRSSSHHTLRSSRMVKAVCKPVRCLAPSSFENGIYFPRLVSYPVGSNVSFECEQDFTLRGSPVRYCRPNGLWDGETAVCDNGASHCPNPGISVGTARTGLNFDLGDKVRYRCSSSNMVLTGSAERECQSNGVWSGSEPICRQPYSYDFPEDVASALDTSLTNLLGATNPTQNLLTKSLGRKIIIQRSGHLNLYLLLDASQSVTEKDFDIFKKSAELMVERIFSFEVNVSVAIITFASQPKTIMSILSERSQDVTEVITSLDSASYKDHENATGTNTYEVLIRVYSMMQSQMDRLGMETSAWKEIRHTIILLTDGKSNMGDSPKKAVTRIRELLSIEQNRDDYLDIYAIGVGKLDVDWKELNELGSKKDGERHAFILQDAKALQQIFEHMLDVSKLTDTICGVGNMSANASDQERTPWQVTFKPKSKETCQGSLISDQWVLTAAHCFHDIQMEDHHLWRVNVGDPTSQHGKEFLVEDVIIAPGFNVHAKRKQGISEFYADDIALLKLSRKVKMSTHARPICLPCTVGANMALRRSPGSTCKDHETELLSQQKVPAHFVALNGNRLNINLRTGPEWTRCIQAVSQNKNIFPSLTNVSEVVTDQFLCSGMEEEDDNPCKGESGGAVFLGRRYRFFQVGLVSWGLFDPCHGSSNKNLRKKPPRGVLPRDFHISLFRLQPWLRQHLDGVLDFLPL", "UniProt P18760, whole entry": "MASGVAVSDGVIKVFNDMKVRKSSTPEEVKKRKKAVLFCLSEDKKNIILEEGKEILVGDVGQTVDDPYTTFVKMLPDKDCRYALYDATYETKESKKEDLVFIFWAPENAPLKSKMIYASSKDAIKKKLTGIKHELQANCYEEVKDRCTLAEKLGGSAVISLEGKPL"},
  "source": "the supplement of paper PMC12819154",
  "about": "“High-throughput peptide-centric local stability assay extends protein–ligand identification to membrane proteins, tissues and bacteria” (Nature Structural & Molecular Biology, 2025)",
  "note": "Some of the results follow. Most values lie at the level of the controls, where differences are scatter.",
  "data": [
    {"compound": "CN[C@@H]1C[C@H]2O[C@@](C)([C@@H]1OC)n1c3ccccc3c3c4c(c5c6ccccc6n2c5c31)C(=O)NC4 [staurosporine]", "assay": "log2 fold change of tryptic peptide abundance, ligand vs vehicle (limited proteolysis) (log2 ratio); higher = more trypsin-susceptible (destabilized)", "conditions": "ligand concentration: 20 uM; sample: mouse liver crude lysate; replicate design: treated separately", "values": [
      {"target": "UniProt P26645 (peptide sequence: LSGFSFKK, peptide start residue: 159)", "log2 fold change": 0.298},
      {"target": "UniProt P35283 (peptide sequence: FNSITSAYYR, peptide start residue: 103)", "log2 fold change": 0.122},
      {"target": "UniProt P35285 (peptide sequence: TVQYQNELHK, peptide start residue: 46)", "log2 fold change": -0.271},
      {"target": "UniProt P28828 (peptide sequence: EAADVPYQTGQLHPAIR, peptide start residue: 865)", "log2 fold change": 0.231},
      {"target": "UniProt P17426 (peptide sequence: ANHPMDAEVTK, peptide start residue: 895)", "log2 fold change": -0.888},
      {"target": "UniProt P28741 (peptide sequence: GVIPNSFAHIFGHIAK, peptide start residue: 121)", "log2 fold change": -0.184},
      {"target": "UniProt P26883 (peptide sequence: RGQTCVVHYTGMLEDGKK, peptide start residue: 19)", "log2 fold change": -0.113},
      {"target": "UniProt P27661 (peptide sequence: KASQASQEY, peptide start residue: 135)", "log2 fold change": -0.0944},
      {"target": "UniProt P21278 (peptide sequence: VTTFEHQYVNAIK, peptide start residue: 121)", "log2 fold change": -0.774},
      {"target": "UniProt P18826 (peptide sequence: VPIGFYQK, peptide start residue: 1085)", "log2 fold change": 0.203},
      {"target": "UniProt P30416 (peptide sequence: LASHLNLAMCHLK, peptide start residue: 319)", "log2 fold change": 0.115},
      {"target": "UniProt P22893 (peptide sequence: RDPNQACCPSCR, peptide start residue: 235)", "log2 fold change": -0.244},
      {"target": "UniProt P16879 (peptide sequence: SHFSGIFRPK, peptide start residue: 429)", "log2 fold change": -0.338},
      {"target": "UniProt P26323 (peptide sequence: ESPVDCSVSK, peptide start residue: 78)", "log2 fold change": -0.288},
      {"target": "UniProt P24527 (peptide sequence: TQHLHLR, peptide start residue: 19)", "log2 fold change": -0.61},
      {"target": "UniProt P30415 (peptide sequence: TTHLLPVQSTYSLTNIK, peptide start residue: 638)", "log2 fold change": -0.276},
      {"target": "UniProt P26039 (peptide sequence: ALEATTEHIRQELAVFCSPEPPAK, peptide start residue: 2145)", "log2 fold change": -0.39},
      {"target": "UniProt P17141 (peptide sequence: LQQDDEHREEK, peptide start residue: 88)", "log2 fold change": -0.343},
      {"target": "UniProt P28662 (peptide sequence: VYNIHSR, peptide start residue: 56)", "log2 fold change": -0.14},
      {"target": "UniProt P26150 (peptide sequence: VLDKVFKPETR, peptide start residue: 34)", "log2 fold change": 0.155},
      {"target": "UniProt P23611 (peptide sequence: VFCSGNAVVCK, peptide start residue: 295)", "log2 fold change": -0.215},
      {"target": "UniProt P19785 (peptide sequence: AANLWPSPLVIK, peptide start residue: 292)", "log2 fold change": 0.215},
      {"target": "UniProt P16045 (peptide sequence: FNAHGDANTIVCNTK, peptide start residue: 50)", "log2 fold change": 0.248},
      {"target": "UniProt P27577 (peptide sequence: AAVDLKPTLTIIK, peptide start residue: 3)", "log2 fold change": -0.269},
      {"target": "UniProt P27600 (peptide sequence: YLVQCFDR, peptide start residue: 328)", "log2 fold change": -0.49},
      {"target": "UniProt P28659 (peptide sequence: MFVGQVPR, peptide start residue: 18)", "log2 fold change": 0.171},
      {"target": "UniProt P17012 (peptide sequence: HFSHAGALFTHK, peptide start residue: 490)", "log2 fold change": 0.366},
      {"target": "UniProt P29319 (peptide sequence: ASDGAAK, peptide start residue: 279)", "log2 fold change": 0.165},
      {"target": "UniProt P21180 (peptide sequence: SSSHHTLR, peptide start residue: 73)", "log2 fold change": -0.613},
      {"target": "UniProt P18760 (peptide sequence: KSSTPEEVK, peptide start residue: 22)", "log2 fold change": 0.19},
      {"target": "UniProt P31649 (peptide sequence: ASGTTSNGETKPVCPAMEK, peptide start residue: 5)", "log2 fold change": -0.334}
    ]}
  ]
}
